Results deposited as PubChem BioAssay AID1259254 (NCATS, 2017)
Shown is a random part of about 59,000 reagents tested. Of all reagents, about 1,550 (2.6%) got an active call. 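G2 share is only a proxy for re-replication; each gene was hit by three separate siRNAs, and active genes were retested.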 Unmarked entries are inactive. Reagents against one gene are numbered here. Not all columns of the deposit are shown. Not given: the amount of reagent.

Test: 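Finding genes that stop cells copying their DNA twice in one cycle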 (primary screen)
System: human HCT116 colorectal cancer cells
Reagent: single siRNA against human genes
Duration: 3 days
Read-out: 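Nuclei stained with Hoechst and imaged; cell-cycle phase assigned by DNA content; G2 share scaled per plate, non-targeting siRNA 0%, GMNN siRNA 100%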
Scale: G2 robust z-score: higher = more G2 cells, more excess DNA replication
Hit rule: 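Active siRNAs have a G2 robust z of 5 or more median absolute deviations over the median, which in these data means about 38% or higher of GMNN control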

The first 2 records, ahead of the listing:
gene | reagent no. | G2 robust z-score
KIF11 (kinesin family member 11) | 1 | 11.4 (active)
KIF11 (kinesin family member 11) | 2 | 11.4 (active)

The listing, repeating the preview:
gene | reagent no. | G2 robust z-score
KIF11 (kinesin family member 11) | 1 | 11.4 (active)
KIF11 (kinesin family member 11) | 2 | 11.4 (active)
KIF11 (kinesin family member 11) | 3 | 18.3 (active)
KLK12 (kallikrein related peptidase 12) | 1 | -0.674
KLK12 (kallikrein related peptidase 12) | 2 | -0.159
KLK12 (kallikrein related peptidase 12) | 3 | 4.72
SRI (sorcin) | 1 | 0.524
SRI (sorcin) | 2 | -1.12
SRI (sorcin) | 3 | -0.416
CEACAM7 (CEA cell adhesion molecule 7) | 1 | -0.395
CEACAM7 (CEA cell adhesion molecule 7) | 2 | 0.0266
CEACAM7 (CEA cell adhesion molecule 7) | 3 | -0.381
PIGZ | 1 | 1.13
PIGZ | 2 | 1.12
PIGZ | 3 | -0.387
MSL3 (MSL complex subunit 3) | 1 | -0.502
MSL3 (MSL complex subunit 3) | 2 | -0.312
MSL3 (MSL complex subunit 3) | 3 | 1.3
VEZF1 (vascular endothelial zinc finger 1) | 1 | 0.749
VEZF1 (vascular endothelial zinc finger 1) | 2 | -0.852
VEZF1 (vascular endothelial zinc finger 1) | 3 | 0.198
HLA-DQA2 (major histocompatibility complex, class II, DQ alpha 2) | 1 | 3.83
HLA-DQA2 (major histocompatibility complex, class II, DQ alpha 2) | 2 | -0.185
HLA-DQA2 (major histocompatibility complex, class II, DQ alpha 2) | 3 | 0.341
ST3GAL6 (ST3 beta-galactoside alpha-2,3-sialyltransferase 6) | 1 | 0.774
ST3GAL6 (ST3 beta-galactoside alpha-2,3-sialyltransferase 6) | 2 | -0.804
ST3GAL6 (ST3 beta-galactoside alpha-2,3-sialyltransferase 6) | 3 | 0.116
STK16 (serine/threonine kinase 16) | 1 | 3.44
STK16 (serine/threonine kinase 16) | 2 | -0.98
STK16 (serine/threonine kinase 16) | 3 | -0.46
GPAA1 (glycosylphosphatidylinositol anchor attachment 1) | 1 | 1.98
GPAA1 (glycosylphosphatidylinositol anchor attachment 1) | 2 | 0.228
GPAA1 (glycosylphosphatidylinositol anchor attachment 1) | 3 | -0.872
SLC38A1 | 1 | 7.69 (active)
SLC38A1 | 2 | -0.167
SLC38A1 | 3 | 1.19
ATP6V1E2 (ATPase H+ transporting V1 subunit E2) | 1 | 0.371
ATP6V1E2 (ATPase H+ transporting V1 subunit E2) | 2 | 0.904
ATP6V1E2 (ATPase H+ transporting V1 subunit E2) | 3 | -1.27
SLC22A3 | 1 | 0.122
SLC22A3 | 2 | -0.855
SLC22A3 | 3 | -1.4
CRYBA4 (crystallin beta A4) | 1 | -0.297
CRYBA4 (crystallin beta A4) | 2 | -0.7
CRYBA4 (crystallin beta A4) | 3 | -0.464
KCNK13 (potassium two pore domain channel subfamily K member 13) | 1 | -0.253
KCNK13 (potassium two pore domain channel subfamily K member 13) | 2 | -0.946
KCNK13 (potassium two pore domain channel subfamily K member 13) | 3 | 0.897
